Reference: the supplement of paper PMC12823440, “Inhibitors supercharge kinase turnover through native proteolytic circuits” (Nature, 2025)
This is one part of the list. The calls rarely recur for the same compound in another form.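 Kinases were expressed as nanoluciferase fusions in K562 cells and luminescence was read every 4 h between 2 and 18 h as percent of control, DMSO set to 100% and a positive control to 0%. A time point counts as decreased when the signal drops significantly (2 sigma). The hit call is the authors' own, does not follow from the count of time points alone, and its rule is not shown.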

Chains of the proteins cited; added tags and fusions are not shown. Lines headed by an entry give the natural chain unless they say otherwise; changes in a name come on top.
UniProt P29317, whole entry: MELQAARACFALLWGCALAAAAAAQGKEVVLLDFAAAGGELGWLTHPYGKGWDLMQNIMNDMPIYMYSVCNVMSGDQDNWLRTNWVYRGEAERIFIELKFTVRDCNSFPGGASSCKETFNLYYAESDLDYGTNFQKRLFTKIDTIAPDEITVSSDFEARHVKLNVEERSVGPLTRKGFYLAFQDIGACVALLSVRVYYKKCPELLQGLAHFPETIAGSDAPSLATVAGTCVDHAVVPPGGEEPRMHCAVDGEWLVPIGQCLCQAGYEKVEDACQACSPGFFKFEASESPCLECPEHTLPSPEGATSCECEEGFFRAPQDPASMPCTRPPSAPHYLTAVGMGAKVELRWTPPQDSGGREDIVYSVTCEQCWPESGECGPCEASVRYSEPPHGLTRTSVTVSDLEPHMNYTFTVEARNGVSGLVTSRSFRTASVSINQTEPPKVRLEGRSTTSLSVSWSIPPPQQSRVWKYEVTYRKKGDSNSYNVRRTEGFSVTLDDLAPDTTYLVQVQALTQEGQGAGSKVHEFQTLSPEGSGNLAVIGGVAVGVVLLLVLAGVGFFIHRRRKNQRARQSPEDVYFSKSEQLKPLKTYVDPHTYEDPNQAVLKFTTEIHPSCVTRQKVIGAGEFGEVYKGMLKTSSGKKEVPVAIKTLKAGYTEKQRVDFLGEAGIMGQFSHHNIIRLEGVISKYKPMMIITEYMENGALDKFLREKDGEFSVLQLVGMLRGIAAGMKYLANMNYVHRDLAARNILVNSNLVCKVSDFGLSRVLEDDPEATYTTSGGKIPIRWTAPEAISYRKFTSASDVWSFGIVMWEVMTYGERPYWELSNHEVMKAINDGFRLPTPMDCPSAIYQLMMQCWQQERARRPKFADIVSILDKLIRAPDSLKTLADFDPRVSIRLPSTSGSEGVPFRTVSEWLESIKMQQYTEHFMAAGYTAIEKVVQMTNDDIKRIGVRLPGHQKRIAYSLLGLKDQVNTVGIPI
UniProt Q15303, whole entry R711C: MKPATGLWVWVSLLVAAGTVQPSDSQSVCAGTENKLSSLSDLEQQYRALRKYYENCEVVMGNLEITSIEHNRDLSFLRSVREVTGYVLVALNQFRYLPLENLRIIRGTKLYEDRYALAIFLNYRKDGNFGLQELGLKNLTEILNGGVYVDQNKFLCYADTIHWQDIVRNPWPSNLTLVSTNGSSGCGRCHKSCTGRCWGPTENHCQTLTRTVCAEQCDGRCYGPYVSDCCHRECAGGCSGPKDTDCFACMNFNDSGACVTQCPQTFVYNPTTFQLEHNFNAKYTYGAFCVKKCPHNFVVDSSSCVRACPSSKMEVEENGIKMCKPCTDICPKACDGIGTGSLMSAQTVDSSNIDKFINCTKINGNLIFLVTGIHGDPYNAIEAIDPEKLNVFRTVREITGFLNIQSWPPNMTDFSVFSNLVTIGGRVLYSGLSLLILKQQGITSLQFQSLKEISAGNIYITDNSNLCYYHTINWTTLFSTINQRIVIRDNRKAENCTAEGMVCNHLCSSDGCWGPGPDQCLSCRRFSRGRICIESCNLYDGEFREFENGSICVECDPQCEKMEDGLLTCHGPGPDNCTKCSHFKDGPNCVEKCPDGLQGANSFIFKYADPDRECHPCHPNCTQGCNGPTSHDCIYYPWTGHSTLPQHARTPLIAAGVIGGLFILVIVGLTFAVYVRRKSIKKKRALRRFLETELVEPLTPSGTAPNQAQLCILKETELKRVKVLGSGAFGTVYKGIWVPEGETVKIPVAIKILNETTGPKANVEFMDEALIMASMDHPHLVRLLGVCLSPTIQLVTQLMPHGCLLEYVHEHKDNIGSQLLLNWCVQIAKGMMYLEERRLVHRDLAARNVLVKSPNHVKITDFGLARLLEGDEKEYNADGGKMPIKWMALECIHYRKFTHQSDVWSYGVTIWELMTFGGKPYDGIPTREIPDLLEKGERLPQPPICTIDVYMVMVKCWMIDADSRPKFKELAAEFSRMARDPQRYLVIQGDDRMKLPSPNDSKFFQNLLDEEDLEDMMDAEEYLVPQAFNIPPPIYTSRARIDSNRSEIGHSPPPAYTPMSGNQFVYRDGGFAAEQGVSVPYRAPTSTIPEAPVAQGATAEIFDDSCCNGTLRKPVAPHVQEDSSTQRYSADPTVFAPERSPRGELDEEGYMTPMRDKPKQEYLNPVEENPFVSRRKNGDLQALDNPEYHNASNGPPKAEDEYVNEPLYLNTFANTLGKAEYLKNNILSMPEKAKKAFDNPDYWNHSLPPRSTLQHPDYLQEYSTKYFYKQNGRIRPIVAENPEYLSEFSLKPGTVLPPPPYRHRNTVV
UniProt P11362, whole entry, looked up: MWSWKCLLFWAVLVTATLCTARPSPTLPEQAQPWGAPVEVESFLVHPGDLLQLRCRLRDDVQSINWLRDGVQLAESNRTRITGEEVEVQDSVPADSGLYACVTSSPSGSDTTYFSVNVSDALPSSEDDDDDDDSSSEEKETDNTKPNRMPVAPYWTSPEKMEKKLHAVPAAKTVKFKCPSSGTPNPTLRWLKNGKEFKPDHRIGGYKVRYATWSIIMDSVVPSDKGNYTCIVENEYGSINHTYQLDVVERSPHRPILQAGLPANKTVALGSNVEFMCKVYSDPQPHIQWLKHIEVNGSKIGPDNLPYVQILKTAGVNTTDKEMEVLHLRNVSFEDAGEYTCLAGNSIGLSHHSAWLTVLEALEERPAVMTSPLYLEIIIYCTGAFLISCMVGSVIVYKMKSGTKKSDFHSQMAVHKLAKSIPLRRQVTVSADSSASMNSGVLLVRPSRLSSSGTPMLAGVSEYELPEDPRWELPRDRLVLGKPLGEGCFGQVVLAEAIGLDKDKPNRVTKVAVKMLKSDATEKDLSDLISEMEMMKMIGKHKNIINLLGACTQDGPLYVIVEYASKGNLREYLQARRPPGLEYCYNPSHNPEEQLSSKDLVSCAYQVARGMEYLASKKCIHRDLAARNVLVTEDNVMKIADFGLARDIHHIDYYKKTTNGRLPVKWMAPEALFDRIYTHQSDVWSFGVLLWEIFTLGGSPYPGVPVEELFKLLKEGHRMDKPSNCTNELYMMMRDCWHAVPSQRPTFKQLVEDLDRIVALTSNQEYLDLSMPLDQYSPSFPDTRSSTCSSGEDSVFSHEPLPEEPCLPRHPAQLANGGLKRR
UniProt P21802, whole entry, looked up: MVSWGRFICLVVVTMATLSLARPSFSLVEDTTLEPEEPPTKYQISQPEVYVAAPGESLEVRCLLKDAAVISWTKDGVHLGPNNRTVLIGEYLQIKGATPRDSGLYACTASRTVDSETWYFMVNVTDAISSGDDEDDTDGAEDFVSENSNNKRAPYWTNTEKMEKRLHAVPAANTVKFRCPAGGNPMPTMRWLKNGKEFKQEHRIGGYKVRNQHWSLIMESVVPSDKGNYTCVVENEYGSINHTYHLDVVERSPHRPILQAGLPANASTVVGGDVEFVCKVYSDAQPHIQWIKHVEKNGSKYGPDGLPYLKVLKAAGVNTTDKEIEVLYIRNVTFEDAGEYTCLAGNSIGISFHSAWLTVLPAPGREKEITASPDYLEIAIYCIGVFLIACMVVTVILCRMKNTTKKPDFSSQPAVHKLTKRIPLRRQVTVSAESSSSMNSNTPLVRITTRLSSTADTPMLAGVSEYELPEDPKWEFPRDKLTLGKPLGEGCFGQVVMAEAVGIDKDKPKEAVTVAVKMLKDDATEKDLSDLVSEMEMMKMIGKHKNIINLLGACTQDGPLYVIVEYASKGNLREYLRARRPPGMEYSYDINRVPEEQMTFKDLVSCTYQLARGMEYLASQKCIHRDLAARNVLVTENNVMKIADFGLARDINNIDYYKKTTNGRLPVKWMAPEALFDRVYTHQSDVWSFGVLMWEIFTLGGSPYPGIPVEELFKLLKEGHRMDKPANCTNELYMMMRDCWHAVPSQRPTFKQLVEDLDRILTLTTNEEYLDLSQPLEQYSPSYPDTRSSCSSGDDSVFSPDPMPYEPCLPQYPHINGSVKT
UniProt P36888, whole entry: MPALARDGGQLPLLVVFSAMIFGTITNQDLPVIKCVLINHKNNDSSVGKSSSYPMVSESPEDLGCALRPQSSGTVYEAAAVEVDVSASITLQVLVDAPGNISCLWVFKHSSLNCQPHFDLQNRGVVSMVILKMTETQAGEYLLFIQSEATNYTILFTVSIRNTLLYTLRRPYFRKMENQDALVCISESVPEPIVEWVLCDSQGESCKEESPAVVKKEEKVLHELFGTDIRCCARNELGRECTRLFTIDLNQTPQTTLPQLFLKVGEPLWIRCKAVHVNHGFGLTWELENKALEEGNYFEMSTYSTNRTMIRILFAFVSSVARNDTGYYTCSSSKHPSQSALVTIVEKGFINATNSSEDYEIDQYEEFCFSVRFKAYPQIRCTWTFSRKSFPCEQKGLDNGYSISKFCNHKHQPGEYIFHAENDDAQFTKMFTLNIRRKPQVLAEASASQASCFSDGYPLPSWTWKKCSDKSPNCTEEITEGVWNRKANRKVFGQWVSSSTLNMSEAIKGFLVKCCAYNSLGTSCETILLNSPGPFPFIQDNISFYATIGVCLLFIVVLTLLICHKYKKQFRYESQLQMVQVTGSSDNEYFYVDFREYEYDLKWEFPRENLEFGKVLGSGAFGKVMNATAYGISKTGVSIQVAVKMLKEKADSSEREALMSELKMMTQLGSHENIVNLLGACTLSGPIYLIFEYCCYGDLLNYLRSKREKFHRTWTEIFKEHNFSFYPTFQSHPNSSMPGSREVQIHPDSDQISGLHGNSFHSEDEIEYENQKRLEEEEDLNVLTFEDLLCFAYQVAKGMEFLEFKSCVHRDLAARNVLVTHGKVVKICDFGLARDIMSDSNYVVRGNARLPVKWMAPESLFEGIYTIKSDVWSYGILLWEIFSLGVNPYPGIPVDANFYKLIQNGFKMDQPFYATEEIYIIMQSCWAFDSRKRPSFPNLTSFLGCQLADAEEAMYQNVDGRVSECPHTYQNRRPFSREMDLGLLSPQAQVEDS
UniProt P14616: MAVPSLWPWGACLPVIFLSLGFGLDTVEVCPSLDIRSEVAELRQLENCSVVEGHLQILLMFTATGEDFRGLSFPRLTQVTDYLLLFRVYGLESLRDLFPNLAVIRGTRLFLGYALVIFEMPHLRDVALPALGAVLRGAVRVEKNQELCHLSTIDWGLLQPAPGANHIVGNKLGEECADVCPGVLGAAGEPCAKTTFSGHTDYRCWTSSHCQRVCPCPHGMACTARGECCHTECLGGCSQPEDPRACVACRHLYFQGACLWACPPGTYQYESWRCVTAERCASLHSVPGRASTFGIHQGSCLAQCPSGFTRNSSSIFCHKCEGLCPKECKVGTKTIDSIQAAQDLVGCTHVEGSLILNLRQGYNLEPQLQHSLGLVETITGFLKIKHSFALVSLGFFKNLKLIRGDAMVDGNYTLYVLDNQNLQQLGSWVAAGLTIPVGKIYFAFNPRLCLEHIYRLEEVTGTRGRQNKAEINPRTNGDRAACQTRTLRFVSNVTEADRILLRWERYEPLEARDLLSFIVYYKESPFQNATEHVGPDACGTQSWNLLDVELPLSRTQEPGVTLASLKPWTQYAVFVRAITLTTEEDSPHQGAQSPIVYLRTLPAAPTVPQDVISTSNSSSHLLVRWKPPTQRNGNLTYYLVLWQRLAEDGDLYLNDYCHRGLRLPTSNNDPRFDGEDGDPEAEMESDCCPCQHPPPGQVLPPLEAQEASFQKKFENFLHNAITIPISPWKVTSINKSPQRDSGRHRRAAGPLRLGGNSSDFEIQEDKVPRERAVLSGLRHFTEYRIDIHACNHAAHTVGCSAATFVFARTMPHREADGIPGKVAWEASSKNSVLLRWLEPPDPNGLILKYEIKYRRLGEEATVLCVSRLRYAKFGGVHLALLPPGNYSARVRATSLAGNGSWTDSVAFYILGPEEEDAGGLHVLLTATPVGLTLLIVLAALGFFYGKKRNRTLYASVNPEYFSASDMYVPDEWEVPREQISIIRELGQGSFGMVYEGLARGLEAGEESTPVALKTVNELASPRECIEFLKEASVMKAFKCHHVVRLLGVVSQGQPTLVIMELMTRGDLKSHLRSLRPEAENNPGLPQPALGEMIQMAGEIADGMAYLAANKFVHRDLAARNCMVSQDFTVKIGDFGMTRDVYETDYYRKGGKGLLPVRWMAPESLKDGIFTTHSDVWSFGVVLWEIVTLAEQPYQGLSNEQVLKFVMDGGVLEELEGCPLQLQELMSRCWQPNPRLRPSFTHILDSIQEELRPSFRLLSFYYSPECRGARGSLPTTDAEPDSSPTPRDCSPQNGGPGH

Assays:
Test in all cases: kinase-Nluc reporter destabilization hit call (1 = scored as downregulated) (binary); higher = compound decreases kinase abundance
Conditions in all cases: K562; 2-18 h
[1] = molecular target: EGFR (UniProt P00533)
[2] = molecular target: EGFR_G719S (UniProt P00533)
[3] = molecular target: EGFR_G719S_T790M (UniProt P00533)
[4] = molecular target: EGFR_L718V (UniProt P00533)
[5] = molecular target: EGFR_L858R (UniProt P00533)
[6] = molecular target: EGFR_L861Q (UniProt P00533)
[7] = molecular target: EGFR_T790M (UniProt P00533)
[8] = molecular target: EPHA2 (UniProt P29317)
[9] = molecular target: ERBB3 (UniProt P21860)
[10] = molecular target: ERBB4_R711C (clone: ERBB4_mut) (UniProt Q15303)
[11] = molecular target: ERN1 (UniProt O75460)
[12] = molecular target: FGFR1 (UniProt P11362)
[13] = molecular target: FGFR2 (UniProt P21802)
[14] = molecular target: FGFR3 (UniProt P22607)
[15] = molecular target: FGR (UniProt P09769)
[16] = molecular target: FLT3 (UniProt P36888)
[17] = molecular target: FYN (UniProt P06241)
[18] = molecular target: GSK3A (UniProt P49840)
[19] = molecular target: HER2 (UniProt P04626)
[20] = molecular target: INSRR (UniProt P14616)

Measured: kinase-Nluc reporter destabilization hit call

CCC(F)(F)c1cc(N2CCC(S(C)(=O)=O)CC2)nc2sc(C(N)=O)c(N)c12 (10 µM)
inactive: [1] 0 | [2] 0 | [3] 0 | [4] 0 | [5] 0 | [6] 0 | [7] 0 | [8] 0 | [9] 0 | [10] 0 | [11] 0 | [12] 0 | [13] 0 | [14] 0 | [15] 0 | [16] 0 | [17] 0 | [18] 0 | [19] 0 | [20] 0

CN1CCN(Cc2ccc(-c3cnc4[nH]cc(-c5ccc6[nH]ccc6c5)c4c3)cc2)CC1 (2.5 µM)
inactive: [1] 0 | [2] 0 | [3] 0 | [4] 0 | [5] 0 | [6] 0 | [7] 0 | [8] 0 | [9] 0 | [10] 0 | [11] 0 | [12] 0 | [13] 0 | [14] 0 | [15] 0 | [16] 0 | [17] 0 | [18] 0 | [19] 0 | [20] 0

COc1cc(N2CCC(N3CCN(C)CC3)CC2)ccc1Nc1ncnc(Nc2ccccc2S(=O)(=O)C(C)C)n1 (10 µM)
inactive: [1] 0 | [2] 0 | [3] 0 | [4] 0 | [5] 0 | [6] 0 | [7] 0 | [8] 0 | [9] 0 | [10] 0 | [11] 0 | [12] 0 | [13] 0 | [14] 0 | [15] 0 | [16] 0 | [17] 0 | [18] 0 | [19] 0 | [20] 0

CC(C)c1cc2c(c(O)c1O)[C@@]13CCCC(C)(C)[C@@H]1C[C@@H]2OC3=O [Carnosol] (2.5 µM)
inactive: [1] 0 | [2] 0 | [3] 0 | [4] 0 | [5] 0 | [6] 0 | [7] 0 | [8] 0 | [9] 0 | [10] 0 | [11] 0 | [12] 0 | [13] 0 | [14] 0 | [15] 0 | [16] 0 | [17] 0 | [18] 0 | [19] 0 | [20] 0

Cc1ccc2c(NS(=O)(=O)c3ccccc3Cl)cccc2c1Oc1ncccc1-c1ccnc(N[C@H]2CCCNC2)n1 (2.5 µM)
inactive: [1] 0 | [2] 0 | [3] 0 | [4] 0 | [5] 0 | [6] 0 | [7] 0 | [8] 0 | [9] 0 | [10] 0 | [11] 0 | [12] 0 | [13] 0 | [14] 0 | [15] 0 | [16] 0 | [17] 0 | [18] 0 | [19] 0 | [20] 0

COc1cc2c(cc1OC)[C@@H]1C(=O)c3ccc4c(c3O[C@@H]1CO2)C=CC(C)(C)O4 [Deguelin] (10 µM)
inactive: [1] 0 | [2] 0 | [3] 0 | [4] 0 | [5] 0 | [6] 0 | [7] 0 | [8] 0 | [9] 0 | [10] 0 | [11] 0 | [12] 0 | [13] 0 | [14] 0 | [15] 0 | [16] 0 | [17] 0 | [18] 0 | [19] 0 | [20] 0

COCCOc1cnc2ccn([C@H](C)c3nnc4c(F)cc(-c5cnn(C)c5)cn34)c(=O)c2c1 (10 µM)
inactive: [1] 0 | [2] 0 | [3] 0 | [4] 0 | [5] 0 | [6] 0 | [7] 0 | [8] 0 | [9] 0 | [10] 0 | [11] 0 | [12] 0 | [13] 0 | [14] 0 | [15] 0 | [16] 0 | [17] 0 | [18] 0 | [19] 0 | [20] 0

CN1CCC(Nc2ccc(C(=O)Nc3cc(-c4ccc5c(c4)OCO5)[nH]n3)cc2)CC1 (10 µM)
inactive: [1] 0 | [2] 0 | [3] 0 | [4] 0 | [5] 0 | [6] 0 | [7] 0 | [8] 0 | [9] 0 | [10] 0 | [11] 0 | [12] 0 | [13] 0 | [14] 0 | [15] 0 | [16] 0 | [17] 0 | [18] 0 | [19] 0 | [20] 0

NC(=O)c1ccccc1Nc1ccnc(Nc2cccc(O)c2)n1 (10 µM)
inactive: [1] 0 | [2] 0 | [3] 0 | [4] 0 | [5] 0 | [6] 0 | [7] 0 | [8] 0 | [9] 0 | [10] 0 | [11] 0 | [12] 0 | [13] 0 | [14] 0 | [15] 0 | [16] 0 | [17] 0 | [18] 0 | [19] 0 | [20] 0

COc1cc2nnc(C(N)=O)c(Nc3ccc(C)cc3F)c2cc1N1CCN(CCO)CC1 (2.5 µM)
inactive: [1] 0 | [2] 0 | [3] 0 | [4] 0 | [5] 0 | [6] 0 | [7] 0 | [8] 0 | [9] 0 | [10] 0 | [11] 0 | [12] 0 | [13] 0 | [14] 0 | [15] 0 | [16] 0 | [17] 0 | [18] 0 | [19] 0 | [20] 0

CNCc1cc(Oc2ccc3c(ccn3C(=O)Nc3cc(C(F)(F)F)n(C)n3)c2)ncn1 [Acrizanib] (10 µM)
inactive: [1] 0 | [2] 0 | [3] 0 | [4] 0 | [5] 0 | [6] 0 | [7] 0 | [8] 0 | [9] 0 | [10] 0 | [11] 0 | [12] 0 | [13] 0 | [14] 0 | [15] 0 | [16] 0 | [17] 0 | [18] 0 | [19] 0 | [20] 0

COc1cc(N2CCC(O)CC2)ccc1Nc1nc(Nc2ccccc2S(=O)(=O)C(C)C)c2[nH]cnc2n1 (10 µM)
inactive: [1] 0 | [2] 0 | [3] 0 | [4] 0 | [5] 0 | [6] 0 | [7] 0 | [8] 0 | [9] 0 | [10] 0 | [11] 0 | [12] 0 | [13] 0 | [14] 0 | [15] 0 | [16] 0 | [17] 0 | [18] 0 | [19] 0 | [20] 0

Cc1ccc(C2CC(=O)NC(SCC(=O)Nc3nccs3)=C2C#N)cc1 (stereo not given) [Necrostatin-34] (10 µM)
inactive: [1] 0 | [2] 0 | [3] 0 | [4] 0 | [5] 0 | [6] 0 | [7] 0 | [8] 0 | [9] 0 | [10] 0 | [11] 0 | [12] 0 | [13] 0 | [14] 0 | [15] 0 | [16] 0 | [17] 0 | [18] 0 | [19] 0 | [20] 0

CC(C)Cn1ncc2cc(Oc3ccc(F)cc3F)c(C(=O)NCCN(C)C)cc21 [p38α inhibitor 1] (10 µM)
inactive: [1] 0 | [2] 0 | [3] 0 | [4] 0 | [5] 0 | [6] 0 | [7] 0 | [8] 0 | [9] 0 | [10] 0 | [11] 0 | [12] 0 | [13] 0 | [14] 0 | [15] 0 | [16] 0 | [17] 0 | [18] 0 | [19] 0 | [20] 0

CC1=C(C#N)C(c2ccc3[nH]nc(C)c3c2)C(C#N)=C(C)N1 (10 µM)
inactive: [1] 0 | [2] 0 | [3] 0 | [4] 0 | [5] 0 | [6] 0 | [7] 0 | [8] 0 | [9] 0 | [10] 0 | [11] 0 | [12] 0 | [13] 0 | [14] 0 | [15] 0 | [16] 0 | [17] 0 | [18] 0 | [19] 0 | [20] 0

C[C@@H]1CN(Cc2ccc(F)cc2)[C@@H](C)CN1C(=O)c1cc2c(C(=O)C(=O)N(C)C)cn(C)c2cc1Cl [Talmapimod] (10 µM)
inactive: [1] 0 | [2] 0 | [3] 0 | [4] 0 | [5] 0 | [6] 0 | [7] 0 | [8] 0 | [9] 0 | [10] 0 | [11] 0 | [12] 0 | [13] 0 | [14] 0 | [15] 0 | [16] 0 | [17] 0 | [18] 0 | [19] 0 | [20] 0

At a glance, two of the compounds above.
COc1cc(N2CCC(O)CC2)ccc1Nc1nc(Nc2ccccc2S(=O)(=O)C(C)C)c2[nH]cnc2n1 (10 µM)
inactive: [1] 0 | [2] 0 | [3] 0 | [4] 0 | [5] 0 | [6] 0 | [7] 0 | [8] 0 | [9] 0 | [10] 0 | [11] 0 | [12] 0 | [13] 0 | [14] 0 | [15] 0 | [16] 0 | [17] 0 | [18] 0 | [19] 0 | [20] 0

Cc1ccc(C2CC(=O)NC(SCC(=O)Nc3nccs3)=C2C#N)cc1 (stereo not given) [Necrostatin-34] (10 µM)
inactive: [1] 0 | [2] 0 | [3] 0 | [4] 0 | [5] 0 | [6] 0 | [7] 0 | [8] 0 | [9] 0 | [10] 0 | [11] 0 | [12] 0 | [13] 0 | [14] 0 | [15] 0 | [16] 0 | [17] 0 | [18] 0 | [19] 0 | [20] 0

Additional compounds.

Cn1cc(C2=C(c3ccc(Cl)cc3Cl)C(=O)NC2=O)c2ccccc21 (10 µM)
inactive: [1] 0 | [2] 0 | [3] 0 | [4] 0 | [5] 0 | [6] 0 | [7] 0 | [8] 0 | [9] 0 | [10] 0 | [11] 0 | [12] 0 | [13] 0 | [14] 0 | [15] 0 | [16] 0 | [17] 0 | [18] 0 | [19] 0 | [20] 0

O=C(NC[C@H](O)CO)c1ccncc1Nc1ccc(I)cc1F [Pimasertib] (10 µM)
inactive: [1] 0 | [2] 0 | [3] 0 | [4] 0 | [5] 0 | [6] 0 | [7] 0 | [8] 0 | [9] 0 | [10] 0 | [11] 0 | [12] 0 | [13] 0 | [14] 0 | [15] 0 | [16] 0 | [17] 0 | [18] 0 | [19] 0 | [20] 0
